The text below walks through data of publication doi:10.1101/2020.02.18.953711 (bioRxiv, 2020).

Sequences and labels used below:
T1: C-terminally encoded peptide receptor 2 (CEPR2), MbSUS fusion (Arabidopsis thaliana) (UniProt Q9C7T7)
T1 sequence: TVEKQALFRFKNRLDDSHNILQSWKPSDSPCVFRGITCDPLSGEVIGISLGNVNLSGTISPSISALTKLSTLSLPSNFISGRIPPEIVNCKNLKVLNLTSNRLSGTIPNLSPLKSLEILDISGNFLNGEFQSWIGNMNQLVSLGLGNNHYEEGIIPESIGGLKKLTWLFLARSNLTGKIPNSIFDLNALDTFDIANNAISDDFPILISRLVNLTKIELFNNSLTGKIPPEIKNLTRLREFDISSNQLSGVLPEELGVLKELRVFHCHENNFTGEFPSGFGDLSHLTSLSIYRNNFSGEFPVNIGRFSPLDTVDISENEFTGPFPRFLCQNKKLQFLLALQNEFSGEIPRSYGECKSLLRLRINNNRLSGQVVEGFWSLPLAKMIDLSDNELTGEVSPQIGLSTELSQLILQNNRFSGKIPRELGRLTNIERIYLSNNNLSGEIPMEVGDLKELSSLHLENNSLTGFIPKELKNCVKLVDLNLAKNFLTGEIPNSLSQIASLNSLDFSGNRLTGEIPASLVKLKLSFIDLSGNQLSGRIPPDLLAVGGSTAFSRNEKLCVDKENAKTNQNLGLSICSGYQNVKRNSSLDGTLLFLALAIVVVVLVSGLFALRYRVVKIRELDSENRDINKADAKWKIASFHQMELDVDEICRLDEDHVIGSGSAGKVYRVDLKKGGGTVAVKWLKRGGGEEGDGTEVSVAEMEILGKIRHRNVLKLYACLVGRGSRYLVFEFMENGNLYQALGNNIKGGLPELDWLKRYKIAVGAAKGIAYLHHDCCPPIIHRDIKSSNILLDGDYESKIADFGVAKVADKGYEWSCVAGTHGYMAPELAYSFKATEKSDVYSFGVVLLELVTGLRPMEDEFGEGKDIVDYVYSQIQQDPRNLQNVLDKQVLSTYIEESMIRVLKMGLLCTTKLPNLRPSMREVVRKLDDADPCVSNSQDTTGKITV

B1: NRT1.2 (NPF4.6, AIT1), MbSUS fusion (protein, UniProt Q8H157 1-585)
chain: MEVEEEVSRWEGYADWRNRAAVKGRHGGMLAASFVLVVEILENLAYLANASNLVLYLREYMHMSPSKSANDVTNFMGTAFLLALLGGFLSDAFFSTFQIFLISASIEFLGLIILTIQARTPSLMPPSCDSPTCEEVSGSKAAMLFVGLYLVALGVGGIKGSLASHGAEQFDESTPKGRKQRSTFFNYFVFCLACGALVAVTFVVWLEDNKGWEWGFGVSTIAIFVSILIFLSGSRFYRNKIPCGSPLTTILKVLLAASVKCCSSGSSSNAVASMSVSPSNHCVSKGKKEVESQGELEKPRQEEALPPRAQLTNSLKVLNGAADEKPVHRLLECTVQQVEDVKIVLKMLPIFACTIMLNCCLAQLSTFSVQQAASMNTKIGSLKIPPASLPIFPVVFIMILAPIYDHLIIPFARKATKTETGVTHLQRIGVGLVLSILAMAVAALVEIKRKGVAKDSGLLDSKETLPVTFLWIALQYLFLGSADLFTLAGLLEYFFTEAPSSMRSLATSLSWASLAMGYYLSSVIVSIVNSITGSSGNTPWLRGKSINRYKLDYFYWLMCVLSAANFLHYLFWAMRYKYRSTGSRS
B2: ABCG30, MbSUS fusion (protein, UniProt Q8GZ52 1-1400)
chain: MIQTGEEDEEKATSLEVEFASGNGVDDEEELRLQWATVERLPTFKRVTTALLARDEVSGKGRVIDVTRLEGAERRLLIEMLVKQIEDDNLRLLRKIRKRIDKVGIELPTVEVRFNNLSVEAECQVIHGKPIPTLWNTIKGLLSEFICSKKETKIGILKGVSGIVRPGRMTLLLGPPGCGKTTLLQALSGKFSDSVKVGGEVCYNGCSLSEFIPEKTSSYISQNDLHIPELSVRETLDFSACCQGIGSRMEIMKEISRMEKLQEIIPDPAVDAYMKATSVEGLKNNLQTDYILKILGLDICADTRVGDATRPGISGGEKRRLTTGELVVGPATTLFMDEISNGLDSSTTFQIVSCLQQLAHIAEATILISLLQPAPETFELFDDVILMGEGKIIYHAPRADICRFFEEFGFKCPERKGVADFLQEIMSKKDQEQYWCHRDKPYSYISVDSFINKFKESNLGLLLKEELSKPFNKSQTRKDGLCYKKYSLGKWEMLKACSRREFLLMKRNSFIYLFKSALLVFNALVTMTVFLQVGATTDSLHGNYLMGSLFTALFRLLADGLPELTLTISRLGVFCKQKDLYFYPAWAYAIPSIILKIPLSVLDSFIWTLLTYYVIGYSPEVKRFFLQFLILSTFNLSCVSMFRAIAAIFRTIIASTITGAISILVLSLFGGFVIPKSSMPAWLGWGFWLSPLSYAEIGLTANEFFSPRWSKVISSKTTAGEQMLDIRGLNFGRHSYWTAFGALVGFVLFFNALYVLALTYQNNPQRSRAIISHEKYSRPIEEDFKPCPKITSRAKTGKIILPFKPLTVTFQNVQYYIETPQGKTRQLLSDITGALKPGVLTSLMGVSGAGKTTLLDVLSGRKTRGIIKGEIKVGGYPKVQETFARVSGYCEQFDIHSPNITVEESLKYSAWLRLPYNIDSKTKNELVKEVLETVELDDIKDSVVGLPGISGLSIEQRKRLTIAVELVANPSIIFMDEPTTGLDARAAAIVMRAVKNVAETGRTVVCTIHQPSIDIFETFDELILMKNGGQLVYYGPPGQNSSKVIEYFESFSGLPKIQKNCNPATWILDITSKSAEEKLGIDFSQSYKDSTLYKQNKMVVEQLSSASLGSEALRFPSQFSQTAWVQLKACLWKQHYSYWRNPSHNITRIVFILLDSTLCGLLFWQKAEDINNQQDLISIFGSMYTLVVFPGMNNCAAVINFIAAERNVFYRERFARMYSSWAYSFSQVLIEVPYSLLQSLLCTIIVYPTIGYHMSVYKMFWSLYSIFCSLLIFNYSGMLMVALTPNIHMAVTLRSSFFSMLNLFAGFVIPKQKIPKWWIWMYYLSPTSWVLEGLLSSQYGDVDKEILVFGEKKRVSAFLEDYFGYKHESLAVVAFVLIAYPIIVATLFAFFMSKLSFQKK
B3: ABA importer 4 (AIT4), MbSUS fusion (protein, UniProt Q9LSE8 1-521)
chain: MENDMEEKFEDWKGKEAIPGKHGGIRAASIVCVVVMMENIVFIANGFNFVKYFMGSMHYTPATAANMVTNFMGTSFLLTLFGGFIADSFVTHFTTFIVFCCIELMGLILLTFQAHNPKLLPEKDKTPSTLQSAILFTGLYAMAIGTGGLKASLPSHGGDQIDRRNPRLISRFFDWLYFSICSGCLLAVTVVLWIEEKKGWIWSFNISVGILATALCIFTVGLPFYRFKRPNGSPLKKIAIVIISAARNRNKSDLDEEMMRGLISIYKNNSHNKLKWIDKATLNKNISETEVEETRTFLGLLPIFGSTIVMSCCVAQLSTFSAQQGMLMNKKLFHSFEIPVPSLTAIPLIFMLLSIPLYEFFGKKISSGNNNRSSSFNLKRIGLGLALSSVSMAVSAIVEAKRKHEVVHNNFRISVLWLVFQYLMLSVSDMLTLGGMLEFFYREAPSNMKSISTALGWCSTALGFFLSTTLVEVTNAVTGRLGHQWLGGEDLNKTRLELFYVLLCVLNTLNLLNYIFWAKRY
B4: ABA importer 3 (AIT3), MbSUS fusion (protein, UniProt Q9LSF0 1-515)
chain: MQIEMEEKFEDWRGKEAISGKHGGIKAAFIACVVETMENMVFLACSTNFMMYFTKSMNYSTPKAATMVTNFVGTSFLLTIFGGFVADSFLTRFAAFVLFGSIELLGLIMLTLQAHITKLQPQGGKKPSTPQSTVLFTGLYAIAIGVGGVKGSLPAHGGDQIGTRNQRLISGFFNWYFFSVCLGGFLAVTLMVWIEENIGWSSSFTISTAVLASAIFVFVAGCPMYRFKRPAGSPLTRIVNVFVSAARNRNRFVTDAEVVTQNHNSTDKSIHHNKFKFLNKAKLNNKISATQVEETRTFLALLPIFGSTIIMNCCVAQMGTFSVQQGMVTNRKLSRSFEIPVASLNAIPLLCMLSSLALYELFGKRILSNSERSSSFNLKRIGYGLALTSISMAVAAIVEVKRKHEAVHNNIKISVFWLELQFVMLSLSDMLTVGGMLEFFFRESPASMRSMSTALGWCSTAMGFFLSSVLVEVVNGITGWLRDDLNESRLELFYLVLCVLNTLNLFNYIFWAKRY
B5: ABA importer 2 (AIT2), MbSUS fusion (protein, UniProt Q8VYE4 1-567)
chain: MEVEMHGDVSKWEGYADWRNKAALRGRHGGMLAASFVLAVEILENLAFLANASNLVLYLKNFMHMSLARSSSEVTTFMATAFLLALLGGFLADAFFSTFVIFLISASIEFLGLILLTIQARRPSLMPPPCKSSAALRCEVVGGSKAAFLFVGLYLVSLGIGGIKGSLPSHGAEQFDEGTPKGRKQRSTFFNYYVFCLSCGALVAVTFVVWIEDNKGWEWGFGVSTISIFLSILVFLLGSRFYKNKIPRGSPLTTIFKVLLAASIVSCSSKTSSNHFTSREVQSEHEEKTPSQSLTNSLTCLNKAIEGKTHHIWLECTVQQVEDVKIVLKMLPIFGCTIMLNCCLAQLSTYSVHQAATMNRKIVNFNVPSASLPVFPVVFMLILAPTYDHLIIPFARKVTKSEIGITHLQRIGVGLVLSIVAMAVAALVELKRKQVAREAGLLDSEETLPITFLWIALQYLFLGSADLFTLAGLLEFFFTEAPSSMRSLATSLSWASLALGYYLSSVMVPIVNRVTKSAGQSPWLGEKLNRNRLDLFYWLMCVLSVVNFLHYLFWAKRYKYISTGSIS
B6: ABC transporter G25 (ABCG25), MbSUS fusion (protein, UniProt Q84TH5 1-662)
chain: MSAFDGVENQMNGPDSSPRLSQDPREPRSLLSSSCFPITLKFVDVCYRVKIHGMSNDSCNIKKLLGLKQKPSDETRSTEERTILSGVTGMISPGEFMAVLGPSGSGKSTLLNAVAGRLHGSNLTGKILINDGKITKQTLKRTGFVAQDDLLYPHLTVRETLVFVALLRLPRSLTRDVKLRAAESVISELGLTKCENTVVGNTFIRGISGGERKRVSIAHELLINPSLLVLDEPTSGLDATAALRLVQTLAGLAHGKGKTVVTSIHQPSSRVFQMFDTVLLLSEGKCLFVGKGRDAMAYFESVGFSPAFPMNPADFLLDLANGVCQTDGVTEREKPNVRQTLVTAYDTLLAPQVKTCIEVSHFPQDNARFVKTRVNGGGITTCIATWFSQLCILLHRLLKERRHESFDLLRIFQVVAASILCGLMWWHSDYRDVHDRLGLLFFISIFWGVLPSFNAVFTFPQERAIFTRERASGMYTLSSYFMAHVLGSLSMELVLPASFLTFTYWMVYLRPGIVPFLLTLSVLLLYVLASQGLGLALGAAIMDAKKASTIVTVTMLAFVLTGGYYVNKVPSGMVWMKYVSTTFYCYRLLVAIQYGSGEEILRMLGCDSKGKQGASAATSAGCRFVEEEVIGDVGMWTSVGVLFLMFFGYRVLAYLALRRIKH

Results are given in words; binding and its absence hold for the method and conditions named. Some results given as binding are weak or reduced against the parent protein; the word gives no strength. Where a sequence is shown, tags or fusion partners need not be part of it.

The test deals with T1, C-terminally encoded peptide receptor 2 (CEPR2), MbSUS fusion (Arabidopsis thaliana). The experiment in a line: two-hybrid.
As for B1, the binding entry is listed as “binds”. On to B2, for which the binding entry is listed as “no binding”.

For the molecule B3, the binding entry is on record as “no binding”. With B4, the binding entry is “no binding”.

For the molecule B5, the binding entry was “no binding”. Then B6, with “no binding”.
